Measurements reported in the supplement of paper PMC12823440, “Inhibitors supercharge kinase turnover through native proteolytic circuits” (Nature, 2025).
Structures can show the parent of a compound that is named as a salt. The list shows a part of the results. Hit calls seldom repeat between salt and free forms of one compound.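 In K562 cells expressing nanoluciferase-fused kinases, luminescence was recorded at 4 h intervals between 2 and 18 h, normalized as percent of control with DMSO at 100% and a positive control at 0%. A significant (2 sigma) signal drop marks a time point as decreased. The authors' rule for a hit is not shown and takes in more than the number of time points.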

Protein sequences, listed by entry. Tags and fused reporters are not part of them. Lines headed by an entry give the natural chain unless they say otherwise; changes in a name come on top.
UniProt Q9UM73: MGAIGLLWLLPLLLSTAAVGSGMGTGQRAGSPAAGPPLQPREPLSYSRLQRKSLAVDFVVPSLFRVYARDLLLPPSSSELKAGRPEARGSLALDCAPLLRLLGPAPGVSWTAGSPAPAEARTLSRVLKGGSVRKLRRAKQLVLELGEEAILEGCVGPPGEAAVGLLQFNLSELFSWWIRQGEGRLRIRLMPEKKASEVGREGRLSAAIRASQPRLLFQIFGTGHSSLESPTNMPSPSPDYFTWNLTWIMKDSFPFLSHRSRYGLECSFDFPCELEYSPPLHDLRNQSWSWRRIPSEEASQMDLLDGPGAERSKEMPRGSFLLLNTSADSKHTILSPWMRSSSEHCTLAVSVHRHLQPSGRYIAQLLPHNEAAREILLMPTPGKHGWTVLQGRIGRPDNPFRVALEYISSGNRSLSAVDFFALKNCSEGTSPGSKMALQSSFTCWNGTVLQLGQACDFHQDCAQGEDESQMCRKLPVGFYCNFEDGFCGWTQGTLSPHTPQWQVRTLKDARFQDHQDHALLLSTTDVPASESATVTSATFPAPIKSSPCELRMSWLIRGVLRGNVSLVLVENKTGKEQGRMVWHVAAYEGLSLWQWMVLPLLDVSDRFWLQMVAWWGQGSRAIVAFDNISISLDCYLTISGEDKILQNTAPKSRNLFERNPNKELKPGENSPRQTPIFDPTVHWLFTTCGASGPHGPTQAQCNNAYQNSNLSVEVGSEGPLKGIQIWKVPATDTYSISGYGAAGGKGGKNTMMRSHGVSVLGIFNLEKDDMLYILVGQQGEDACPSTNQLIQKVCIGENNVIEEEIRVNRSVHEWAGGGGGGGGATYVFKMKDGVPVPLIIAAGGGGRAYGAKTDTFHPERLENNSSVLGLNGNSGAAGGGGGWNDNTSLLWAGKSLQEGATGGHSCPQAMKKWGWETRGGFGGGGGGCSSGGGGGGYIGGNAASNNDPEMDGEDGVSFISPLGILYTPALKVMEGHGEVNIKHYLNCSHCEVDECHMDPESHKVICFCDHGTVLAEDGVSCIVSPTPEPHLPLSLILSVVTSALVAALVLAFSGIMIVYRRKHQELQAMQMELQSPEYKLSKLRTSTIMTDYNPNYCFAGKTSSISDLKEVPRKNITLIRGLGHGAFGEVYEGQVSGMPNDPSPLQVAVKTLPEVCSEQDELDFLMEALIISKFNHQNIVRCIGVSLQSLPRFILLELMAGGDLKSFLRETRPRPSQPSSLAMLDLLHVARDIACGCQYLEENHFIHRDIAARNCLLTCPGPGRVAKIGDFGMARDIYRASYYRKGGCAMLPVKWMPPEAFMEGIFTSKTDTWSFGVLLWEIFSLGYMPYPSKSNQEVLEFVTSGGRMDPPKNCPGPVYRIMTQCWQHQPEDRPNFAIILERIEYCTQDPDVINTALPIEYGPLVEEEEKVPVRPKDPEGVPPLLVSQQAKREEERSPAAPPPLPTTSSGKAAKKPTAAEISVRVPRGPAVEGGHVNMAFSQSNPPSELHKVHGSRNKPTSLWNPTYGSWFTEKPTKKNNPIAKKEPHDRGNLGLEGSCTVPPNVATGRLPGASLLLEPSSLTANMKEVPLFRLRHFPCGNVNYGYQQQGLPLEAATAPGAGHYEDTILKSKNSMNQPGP
UniProt P10398: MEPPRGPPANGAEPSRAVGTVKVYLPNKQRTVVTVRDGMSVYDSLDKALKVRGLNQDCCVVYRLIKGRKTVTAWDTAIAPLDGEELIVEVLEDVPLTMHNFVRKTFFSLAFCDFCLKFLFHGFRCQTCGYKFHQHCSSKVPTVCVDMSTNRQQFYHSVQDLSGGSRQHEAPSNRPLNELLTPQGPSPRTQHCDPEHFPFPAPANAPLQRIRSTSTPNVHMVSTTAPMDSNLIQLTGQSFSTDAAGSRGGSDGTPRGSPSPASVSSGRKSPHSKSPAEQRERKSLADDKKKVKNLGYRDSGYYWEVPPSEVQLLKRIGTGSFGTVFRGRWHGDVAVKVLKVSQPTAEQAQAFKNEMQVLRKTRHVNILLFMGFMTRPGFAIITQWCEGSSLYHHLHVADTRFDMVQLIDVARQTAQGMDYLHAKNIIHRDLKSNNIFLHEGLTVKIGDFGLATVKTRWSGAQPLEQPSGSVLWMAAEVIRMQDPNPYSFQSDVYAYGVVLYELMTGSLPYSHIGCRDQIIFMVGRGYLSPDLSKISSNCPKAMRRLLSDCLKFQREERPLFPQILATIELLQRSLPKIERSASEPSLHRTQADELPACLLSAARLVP
UniProt O14965: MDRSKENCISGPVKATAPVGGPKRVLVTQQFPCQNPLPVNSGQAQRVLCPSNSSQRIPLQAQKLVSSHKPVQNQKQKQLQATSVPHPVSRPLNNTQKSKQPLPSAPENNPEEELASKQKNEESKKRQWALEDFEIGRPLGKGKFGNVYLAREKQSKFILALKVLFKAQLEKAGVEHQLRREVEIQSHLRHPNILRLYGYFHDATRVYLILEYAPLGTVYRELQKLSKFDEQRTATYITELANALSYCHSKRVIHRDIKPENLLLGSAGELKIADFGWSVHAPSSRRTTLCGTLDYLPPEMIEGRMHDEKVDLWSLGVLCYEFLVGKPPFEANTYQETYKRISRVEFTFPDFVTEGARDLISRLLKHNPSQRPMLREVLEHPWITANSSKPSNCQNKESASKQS
UniProt Q96GD4, whole entry: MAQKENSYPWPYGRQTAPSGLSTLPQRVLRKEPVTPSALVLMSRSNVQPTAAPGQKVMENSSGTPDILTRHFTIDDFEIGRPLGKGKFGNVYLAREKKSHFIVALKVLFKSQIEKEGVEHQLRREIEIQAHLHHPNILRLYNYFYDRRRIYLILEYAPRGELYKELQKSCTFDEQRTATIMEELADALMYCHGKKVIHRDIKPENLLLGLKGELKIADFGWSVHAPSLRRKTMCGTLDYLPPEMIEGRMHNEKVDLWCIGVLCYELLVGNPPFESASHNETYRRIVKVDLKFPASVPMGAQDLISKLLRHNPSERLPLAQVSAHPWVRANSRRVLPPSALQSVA
UniProt Q9UQB9: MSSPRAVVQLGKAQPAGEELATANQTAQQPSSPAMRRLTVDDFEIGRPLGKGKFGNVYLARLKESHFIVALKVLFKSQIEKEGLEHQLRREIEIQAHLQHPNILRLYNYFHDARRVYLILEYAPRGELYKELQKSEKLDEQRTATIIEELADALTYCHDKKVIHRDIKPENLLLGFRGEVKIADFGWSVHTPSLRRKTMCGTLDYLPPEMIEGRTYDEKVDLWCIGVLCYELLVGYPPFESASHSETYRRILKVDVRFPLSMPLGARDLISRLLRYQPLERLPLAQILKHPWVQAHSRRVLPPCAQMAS
UniProt P51451: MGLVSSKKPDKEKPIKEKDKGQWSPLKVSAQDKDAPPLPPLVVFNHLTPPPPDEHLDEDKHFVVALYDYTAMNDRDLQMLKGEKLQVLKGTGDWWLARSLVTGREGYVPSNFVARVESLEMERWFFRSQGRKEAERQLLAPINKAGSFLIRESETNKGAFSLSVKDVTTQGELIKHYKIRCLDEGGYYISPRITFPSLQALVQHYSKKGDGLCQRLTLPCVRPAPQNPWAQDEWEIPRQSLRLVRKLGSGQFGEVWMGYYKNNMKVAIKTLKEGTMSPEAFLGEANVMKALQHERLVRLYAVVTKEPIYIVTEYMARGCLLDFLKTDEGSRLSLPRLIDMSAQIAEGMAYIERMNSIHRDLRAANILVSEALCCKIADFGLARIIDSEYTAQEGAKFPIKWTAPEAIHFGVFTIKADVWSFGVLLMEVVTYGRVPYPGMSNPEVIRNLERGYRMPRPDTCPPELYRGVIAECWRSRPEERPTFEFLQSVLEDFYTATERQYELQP
UniProt P51813: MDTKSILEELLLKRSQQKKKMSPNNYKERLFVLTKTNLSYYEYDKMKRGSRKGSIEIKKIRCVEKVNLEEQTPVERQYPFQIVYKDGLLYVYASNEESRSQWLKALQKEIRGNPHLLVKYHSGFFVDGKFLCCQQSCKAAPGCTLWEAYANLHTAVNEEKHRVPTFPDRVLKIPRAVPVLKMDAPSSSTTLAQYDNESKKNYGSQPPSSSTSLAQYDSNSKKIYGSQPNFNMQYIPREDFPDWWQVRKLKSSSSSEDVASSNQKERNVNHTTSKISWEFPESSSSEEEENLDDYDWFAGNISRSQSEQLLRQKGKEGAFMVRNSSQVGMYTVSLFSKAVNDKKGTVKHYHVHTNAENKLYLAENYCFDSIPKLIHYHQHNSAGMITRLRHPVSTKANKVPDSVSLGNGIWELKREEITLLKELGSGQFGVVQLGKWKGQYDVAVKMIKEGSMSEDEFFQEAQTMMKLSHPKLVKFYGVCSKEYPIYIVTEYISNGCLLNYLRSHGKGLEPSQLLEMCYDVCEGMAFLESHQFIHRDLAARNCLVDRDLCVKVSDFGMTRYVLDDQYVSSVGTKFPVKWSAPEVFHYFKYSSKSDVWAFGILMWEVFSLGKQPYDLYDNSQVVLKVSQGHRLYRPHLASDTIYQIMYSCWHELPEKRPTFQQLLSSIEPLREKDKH
UniProt P15056, whole entry, looked up: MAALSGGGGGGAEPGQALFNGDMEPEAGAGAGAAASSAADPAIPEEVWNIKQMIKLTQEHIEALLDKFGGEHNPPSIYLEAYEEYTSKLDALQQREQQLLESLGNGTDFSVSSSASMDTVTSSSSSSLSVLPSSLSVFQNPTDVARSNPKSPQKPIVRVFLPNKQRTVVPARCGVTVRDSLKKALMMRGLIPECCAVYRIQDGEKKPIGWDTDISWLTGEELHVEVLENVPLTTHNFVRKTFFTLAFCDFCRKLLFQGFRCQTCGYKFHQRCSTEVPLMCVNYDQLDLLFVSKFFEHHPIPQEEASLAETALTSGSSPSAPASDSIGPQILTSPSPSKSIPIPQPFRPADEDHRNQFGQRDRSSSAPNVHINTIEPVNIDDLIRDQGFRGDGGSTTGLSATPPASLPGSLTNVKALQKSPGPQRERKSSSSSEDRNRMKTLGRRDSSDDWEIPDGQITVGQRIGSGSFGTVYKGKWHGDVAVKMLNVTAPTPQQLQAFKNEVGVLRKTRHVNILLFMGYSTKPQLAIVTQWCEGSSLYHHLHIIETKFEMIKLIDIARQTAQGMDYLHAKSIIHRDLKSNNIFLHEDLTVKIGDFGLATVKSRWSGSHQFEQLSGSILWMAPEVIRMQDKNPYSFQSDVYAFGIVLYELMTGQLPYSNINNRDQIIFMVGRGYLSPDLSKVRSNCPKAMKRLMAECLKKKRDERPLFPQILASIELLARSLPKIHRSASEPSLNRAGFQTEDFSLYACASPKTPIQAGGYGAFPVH
UniProt Q06187: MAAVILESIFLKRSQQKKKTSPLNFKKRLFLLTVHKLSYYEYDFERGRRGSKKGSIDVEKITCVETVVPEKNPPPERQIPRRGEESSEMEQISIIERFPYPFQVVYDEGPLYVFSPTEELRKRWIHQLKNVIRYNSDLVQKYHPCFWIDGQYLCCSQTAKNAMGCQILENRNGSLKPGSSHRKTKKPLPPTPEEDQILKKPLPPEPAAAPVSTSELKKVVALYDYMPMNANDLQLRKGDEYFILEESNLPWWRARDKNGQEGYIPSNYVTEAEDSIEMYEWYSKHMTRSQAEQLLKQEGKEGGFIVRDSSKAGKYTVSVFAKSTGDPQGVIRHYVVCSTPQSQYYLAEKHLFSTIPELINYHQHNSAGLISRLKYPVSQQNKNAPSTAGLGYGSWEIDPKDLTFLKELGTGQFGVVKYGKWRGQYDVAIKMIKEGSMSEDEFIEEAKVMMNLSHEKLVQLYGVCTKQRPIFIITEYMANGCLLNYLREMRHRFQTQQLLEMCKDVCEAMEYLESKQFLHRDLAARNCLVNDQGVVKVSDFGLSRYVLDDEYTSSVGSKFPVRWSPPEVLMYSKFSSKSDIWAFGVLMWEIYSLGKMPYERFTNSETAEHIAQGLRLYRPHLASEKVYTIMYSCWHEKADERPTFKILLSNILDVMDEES

Columns and labels:
Assay in all cases: number of time points (of 5) at which kinase-Nluc abundance scored as decreased, DMSO-normalised (count); higher = more persistent destabilization
Conditions in all cases: K562; 2-18 h
[1] = molecular target: ALK (UniProt Q9UM73)
[2] = molecular target: ARAF (UniProt P10398)
[3] = molecular target: AURKA (UniProt O14965)
[4] = molecular target: AURKB (UniProt Q96GD4)
[5] = molecular target: AURKC (UniProt Q9UQB9)
[6] = molecular target: BLK (UniProt P51451)
[7] = molecular target: BMX (UniProt P51813)
[8] = molecular target: BRAF (UniProt P15056)
[9] = tested on: BRAF_V600E
[10] = molecular target: BTK (UniProt Q06187)

Structure (SMILES) | number of time points [1] | number of time points [2] | number of time points [3] | number of time points [4] | number of time points [5] | number of time points [6] | number of time points [7] | number of time points [8] | number of time points [9] | number of time points [10]
Cc1cc2c(F)c(Oc3ncnn4cc(OC[C@@H](C)OC(=O)[C@H](C)N)c(C)c34)ccc2[nH]1 [Brivanib (alaninate)] (10 µM) | 0 | 0 | 0 | 0 | 0 | 0 | 0 | 0 | 0 | 0
CCCCNc1ncc(C(=O)NCc2ccc(-n3ccnc3)cc2)c(NC2CCC(O)CC2)n1 (stereo not given) (10 µM) | 0 | 0 | 0 | 0 | 0 | 0 | 0 | 0 | 0 | 0
Nc1nc(Nc2ccc3c(c2)CC[C@@H](N2CCCC2)CC3)nn1-c1cc2c(nn1)-c1ccccc1CCC2 [Bemcentinib] (2.5 µM) | 0 | 0 | 0 | 0 | 0 | 0 | 0 | 0 | 0 | 0
CC1=C(C#N)C(c2ccc3[nH]nc(C)c3c2)C(C#N)=C(C)N1 (10 µM) | 0 | 0 | 0 | 0 | 0 | 0 | 0 | 0 | 0 | 0
CC(=O)O[C@@H]1[C@@H](OC(C)=O)[C@@H](O)[C@H](Oc2c(-c3ccc(O)cc3)oc3cc(O)cc(O)c3c2=O)O[C@H]1C (10 µM) | 0 | 0 | 0 | 0 | 0 | 0 | 0 | 0 | 0 | 0
COc1cccc(-c2cc(=O)c3ccccc3o2)c1N (10 µM) | 0 | 0 | 0 | 0 | 0 | 0 | 0 | 0 | 0 | 0
O=C(Nc1ccccc1C(=O)NC1CCCCNC1=O)c1cc2ccccc2s1 (stereo not given) (10 µM) | 0 | 0 | 0 | 0 | 0 | 1 | 0 | 0 | 0 | 0
O=[N+]([O-])c1ccc(-c2nc(-c3ccc(F)cc3)c(-c3ccncc3)[nH]2)cc1 (10 µM) | 0 | 0 | 0 | 0 | 0 | 0 | 0 | 0 | 0 | 0
CC1(C)CN(C(=O)c2ccc(-c3cccc4nc(NC(=O)C5CC5)nn34)cc2)C1 [Solcitinib] (10 µM) | 0 | 0 | 0 | 0 | 0 | 0 | 0 | 0 | 0 | 0
O=C(NC[C@H](O)CO)c1ccncc1Nc1ccc(I)cc1F [Pimasertib] (10 µM) | 1 | 4 | 1 | 0 | 0 | 0 | 1 | 0 | 3 | 0
Cc1ccc(Nc2cc(N[C@@H]3CCCC[C@@H]3N)nnc2C(N)=O)nc1C (2 µM) | 0 | 0 | 0 | 0 | 0 | 0 | 0 | 0 | 0 | 0
Cc1ccc(NC(=O)N2CCN(c3nc(N)nc4sc(-c5cccnc5)nc34)CC2)cc1 [PI4KIII beta inhibitor 3] (10 µM) | 0 | 0 | 0 | 0 | 0 | 0 | 0 | 0 | 0 | 0
Cc1cc(N2CCOCC2)ccc1Nc1nc(NC2CCCCC2)c2[nH]cnc2n1 (10 µM) | 0 | 0 | 0 | 0 | 0 | 0 | 0 | 0 | 0 | 0
O=C(C#Cc1ccccc1)c1cccc([N+](=O)[O-])c1 (10 µM) | 0 | 0 | 0 | 0 | 0 | 0 | 0 | 0 | 0 | 0
CCc1c(C(=O)NNC(=O)[C@H](O)c2cc(F)cc(F)c2)ccc(O)c1C (10 µM) | 0 | 0 | 0 | 0 | 0 | 0 | 0 | 0 | 0 | 0
CN(C)c1cc[n+](Cc2ccc(OCCOc3ccc(C[n+]4ccc(N(C)C)cc4)cc3)cc2)cc1 (10 µM) | 0 | 0 | 0 | 0 | 0 | 0 | 0 | 0 | 0 | 0
Cc1ncsc1-c1ccc(CNC(=O)[C@@H]2C[C@@H](O)CN2C(=O)[C@@H](NC(=O)COCCOc2ccc(-c3cc(Nc4ccc(OC(F)(F)F)cc4)ncn3)cc2)C(C)(C)C)cc1 (2.5 µM) | 1 | 0 | 3 | 1 | 0 | 0 | 2 | 1 | 2 | 0

Structure (SMILES) | number of time points [1] | number of time points [2] | number of time points [3] | number of time points [4] | number of time points [5] | number of time points [6] | number of time points [7] | number of time points [8] | number of time points [9] | number of time points [10]
CN1CCN(Cc2ccc(-c3cnc4[nH]cc(-c5ccc6[nH]ccc6c5)c4c3)cc2)CC1 (2.5 µM) | 0 | 0 | 0 | 0 | 0 | 0 | 0 | 0 | 1 | 0
O=c1c(O)c(-c2ccc(O)c(O)c2)oc2cc(O)c(O)c(O)c12 [Quercetagetin] (10 µM) | 0 | 0 | 0 | 0 | 0 | 0 | 0 | 0 | 0 | 0
O=C1OC(COc2ccccc2[N+](=O)[O-])CC1Cc1ccccc1 (stereo not given) (10 µM) | 0 | 0 | 0 | 0 | 0 | 0 | 0 | 0 | 0 | 0
Cn1cc(-c2nc(N[C@@H]3CCCC[C@@H]3N)c(F)c3c2C(=O)NC3)cn1 [TAK-659 (hydrochloride)] (2 µM) | 0 | 0 | 0 | 0 | 0 | 0 | 0 | 0 | 0 | 0
Oc1ccc(-c2cnc3ccc(NCc4ccco4)nn23)cc1 [IRAK inhibitor 2] (2.5 µM) | 0 | 0 | 0 | 0 | 0 | 0 | 0 | 0 | 1 | 0
Cc1nc(Nc2cnn(C3CCNCC3)c2)nc2c1N(C)C(=O)c1cc3ccccc3cc1N2C (2.5 µM) | 0 | 0 | 0 | 0 | 0 | 0 | 0 | 0 | 0 | 0
CC(ONC(=O)c1cc(C(F)(F)F)cc(C(F)(F)F)c1)C(=O)Nc1ccc(Cl)cc1 (stereo not given) (2.5 µM) | 0 | 0 | 0 | 0 | 0 | 0 | 5 | 0 | 0 | 0
COCCOc1cnc2ccn([C@H](C)c3nnc4c(F)cc(-c5cnn(C)c5)cn34)c(=O)c2c1 (10 µM) | 0 | 0 | 0 | 0 | 0 | 0 | 0 | 0 | 0 | 0
Nc1ccc(-c2nc3ccc(-c4nc5ccc(N)cc5[nH]4)cc3[nH]2)cc1 (10 µM) | 0 | 0 | 0 | 0 | 0 | 0 | 0 | 0 | 0 | 0
O=C1NC(=O)C(Cc2c[nH]c3c(Cl)cccc23)N1 (stereo not given) [Necroptosis-IN-1] (10 µM) | 0 | 0 | 0 | 0 | 0 | 0 | 0 | 0 | 0 | 0
CC/C(=C(\c1ccccc1)c1ccc(OCCNC)cc1)c1ccccc1 [N-Desmethyltamoxifen (hydrochloride)] (2.5 µM) | 0 | 0 | 0 | 0 | 0 | 0 | 0 | 0 | 0 | 0
CNc1cc2c(Nc3cccc(Br)c3)ncnc2cn1 (10 µM) | 0 | 0 | 0 | 0 | 0 | 0 | 0 | 0 | 0 | 0
CCC(F)(F)c1cc(N2CCC(S(C)(=O)=O)CC2)nc2sc(C(N)=O)c(N)c12 (10 µM) | 0 | 0 | 0 | 0 | 0 | 0 | 0 | 0 | 0 | 0
CN(C)CCOc1cc(-c2cn[nH]c2)ccc1NC(=O)C1COc2ccccc2O1 (stereo not given) (10 µM) | 0 | 0 | 0 | 0 | 0 | 0 | 0 | 0 | 0 | 0
CC(C)n1c(CO)nc2c(F)cc(-c3nc(Nc4ccc(CN5CCNCC5)cn4)ncc3F)cc21 (10 µM) | 3 | 0 | 3 | 4 | 0 | 3 | 4 | 0 | 3 | 0
N#Cc1cc(N2CCC(C(=O)N3N=CC[C@H]3c3cc(F)cc(F)c3)CC2)ncn1 (10 µM) | 0 | 0 | 0 | 0 | 0 | 0 | 0 | 0 | 0 | 0
CC(C1CC1)n1cnc2c(NCc3cccc(C(F)(F)F)c3)nc(NCCN(C)C)nc21 (stereo not given) (10 µM) | 0 | 0 | 0 | 0 | 0 | 0 | 0 | 0 | 0 | 0

Quoted at random: two compounds from above, in no set order.
Structure (SMILES) | number of time points [1] | number of time points [2] | number of time points [3] | number of time points [4] | number of time points [5] | number of time points [6] | number of time points [7] | number of time points [8] | number of time points [9] | number of time points [10]
CCC(F)(F)c1cc(N2CCC(S(C)(=O)=O)CC2)nc2sc(C(N)=O)c(N)c12 (10 µM) | 0 | 0 | 0 | 0 | 0 | 0 | 0 | 0 | 0 | 0
N#Cc1cc(N2CCC(C(=O)N3N=CC[C@H]3c3cc(F)cc(F)c3)CC2)ncn1 (10 µM) | 0 | 0 | 0 | 0 | 0 | 0 | 0 | 0 | 0 | 0
